Measured values taken from publication PMC10247366.
Results are given in words; binding and its absence hold for the method and conditions named. For some of these results: Binding seen in cells or lysates may run through a third protein. Some results given as binding are weak or reduced against the parent protein; the word gives no strength. Blank lines part the entries; values can stand above or below the substance they belong to.

Protein sequences, listed by entry. Tags and fused reporters are not part of them. Lines headed by an entry give the natural chain unless they say otherwise; changes in a name come on top. Chains listed by the source or under a name are the forms on record and can include a tag or linker.
UniProt Q9H6L5: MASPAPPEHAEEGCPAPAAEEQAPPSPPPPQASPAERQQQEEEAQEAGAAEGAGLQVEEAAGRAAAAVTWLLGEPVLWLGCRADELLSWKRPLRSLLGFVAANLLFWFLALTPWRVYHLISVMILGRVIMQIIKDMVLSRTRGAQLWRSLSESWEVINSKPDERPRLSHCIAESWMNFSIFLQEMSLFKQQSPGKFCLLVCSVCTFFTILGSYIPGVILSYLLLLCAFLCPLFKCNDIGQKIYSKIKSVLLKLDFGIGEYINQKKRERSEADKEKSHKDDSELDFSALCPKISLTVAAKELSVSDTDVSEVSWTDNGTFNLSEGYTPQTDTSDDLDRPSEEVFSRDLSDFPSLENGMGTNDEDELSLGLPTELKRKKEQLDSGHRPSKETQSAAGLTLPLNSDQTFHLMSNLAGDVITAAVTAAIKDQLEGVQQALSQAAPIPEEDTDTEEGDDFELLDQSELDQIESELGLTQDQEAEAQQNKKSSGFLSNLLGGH
FAM134B 8KR (Flag FAM134B-IP) (Q9H6L5, form named): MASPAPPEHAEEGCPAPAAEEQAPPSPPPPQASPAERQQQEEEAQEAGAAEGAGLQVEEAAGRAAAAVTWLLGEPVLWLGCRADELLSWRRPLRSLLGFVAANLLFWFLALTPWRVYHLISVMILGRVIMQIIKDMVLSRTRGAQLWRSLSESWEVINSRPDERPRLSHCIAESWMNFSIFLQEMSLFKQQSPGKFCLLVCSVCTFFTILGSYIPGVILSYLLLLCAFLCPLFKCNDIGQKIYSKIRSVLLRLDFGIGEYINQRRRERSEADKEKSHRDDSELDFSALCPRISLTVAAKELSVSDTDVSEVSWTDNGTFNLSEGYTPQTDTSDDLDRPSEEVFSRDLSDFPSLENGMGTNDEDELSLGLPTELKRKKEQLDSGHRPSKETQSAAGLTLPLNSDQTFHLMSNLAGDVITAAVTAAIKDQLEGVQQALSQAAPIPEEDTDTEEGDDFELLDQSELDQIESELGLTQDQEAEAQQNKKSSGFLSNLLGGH
UniProt Q86VR2: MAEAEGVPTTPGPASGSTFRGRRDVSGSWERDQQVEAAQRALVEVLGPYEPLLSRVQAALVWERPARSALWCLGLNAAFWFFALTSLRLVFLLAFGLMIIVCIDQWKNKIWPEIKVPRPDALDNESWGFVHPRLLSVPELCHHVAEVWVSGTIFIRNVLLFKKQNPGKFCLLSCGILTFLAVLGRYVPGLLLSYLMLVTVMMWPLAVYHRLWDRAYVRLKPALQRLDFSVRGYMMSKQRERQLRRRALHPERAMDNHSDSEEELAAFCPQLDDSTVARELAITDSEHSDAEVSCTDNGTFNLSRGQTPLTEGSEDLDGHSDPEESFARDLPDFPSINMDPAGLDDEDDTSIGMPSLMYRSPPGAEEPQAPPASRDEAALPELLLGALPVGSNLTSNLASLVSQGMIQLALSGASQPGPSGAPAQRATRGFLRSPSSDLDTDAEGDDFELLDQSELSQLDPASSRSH
UniProt Q9UKV5: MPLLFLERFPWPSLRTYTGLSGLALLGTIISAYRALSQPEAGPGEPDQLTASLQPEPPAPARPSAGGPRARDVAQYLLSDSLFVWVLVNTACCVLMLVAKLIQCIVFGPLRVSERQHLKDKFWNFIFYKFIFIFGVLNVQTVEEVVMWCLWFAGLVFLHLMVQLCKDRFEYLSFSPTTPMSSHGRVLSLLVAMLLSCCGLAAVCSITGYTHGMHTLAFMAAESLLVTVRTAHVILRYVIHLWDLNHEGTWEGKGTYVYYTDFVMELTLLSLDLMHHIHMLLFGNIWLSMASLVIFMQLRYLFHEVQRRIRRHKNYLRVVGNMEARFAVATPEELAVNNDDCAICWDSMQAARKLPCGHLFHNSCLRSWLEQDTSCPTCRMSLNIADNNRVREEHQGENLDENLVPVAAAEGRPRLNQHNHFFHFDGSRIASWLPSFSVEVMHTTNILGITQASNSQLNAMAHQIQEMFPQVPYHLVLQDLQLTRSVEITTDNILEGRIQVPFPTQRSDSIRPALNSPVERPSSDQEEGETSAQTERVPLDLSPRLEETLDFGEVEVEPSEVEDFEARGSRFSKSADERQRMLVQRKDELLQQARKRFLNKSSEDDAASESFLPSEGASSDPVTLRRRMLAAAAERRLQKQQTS

Experiments:
[1] = target: V1–FAM134B and V2–FAM134B (WT) (UniProt Q9H6L5); test: split reporter; bimolecular fluorescence complementation of Venus fragments V1 and V2, confocal microscopy of fixed cells
[2] = target: FAM134B 8KR (Flag FAM134B-IP) (UniProt Q9H6L5); test: high-molecular-weight (oligomeric, SDS-resistant) species on immunoblot; Flag FAM134B-IP from lysate of cells expressing FAM134B WT or 8KR, SDS–PAGE, immunoblot; n = 1 experiment
[3] = target: Flag FAM134B (wild type of the 8KR experiment) (UniProt Q9H6L5); test: as above
HA–FAM134B WT = HA–FAM134B WT (UniProt Q9H6L5); test: cross-linking; isolated membranes of cells expressing HA-FAM134B WT or 17KR treated with 0.3 mM EGS, SDS-PAGE, western blot; n = 1 experiment
[4] = target: V1–FAM134B and V2–FAM134B (WT) (UniProt Q9H6L5); test: split reporter; BiCAP: V1- and V2-tagged proteins expressed alone or together in HEK 293T; refolded Venus captured on GFP-Trap, western blot; n = 1 experiment
[5] = target: V1–FAM134C WT and V2–FAM134C WT (UniProt Q86VR2); test: as above

- binding [1]: binds
Substance: AMFR–V2 WT (from UniProt Q9UKV5 1-643) (enzyme)

- binding [2]: binds
Substance: FAM134B 8KR (Flag FAM134B-IP) (from UniProt Q9H6L5 1-497)

- binding [3]: binds
Substance: Flag FAM134B (wild type of the 8KR experiment) (from UniProt Q9H6L5 1-497)

Substance: HA–FAM134B WT (from UniProt Q9H6L5 1-497)
- binding (HA–FAM134B WT): binds

- binding [1]: binds
- binding [4]: binds
Substance: V1–FAM134B and V2–FAM134B (WT) (from UniProt Q9H6L5 1-497)

- binding [5]: binds
Substance: V1–FAM134C WT and V2–FAM134C WT (from UniProt Q86VR2 1-466)
